Source: the supplement of paper PMC4749390
Where a name gives a salt, the structure may show the parent alone. Some of the results follow. This data set is noisy: repeats of one test often differ as much as different tests do.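 JEG3 cells stably express tetracycline-inducible wild-type human LRH-1, a highly sumoylated nuclear receptor. SUMO-sensitive transcripts APOC3 and MUC1, increased by SUMO-deficient LRH-1 or UBC9 knockdown, were quantified by RT-qPCR relative to TBP and DMSO controls. Primary hits had robust Z-scores above +2 or below -2, before toxicity and TBP filtering.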

System: JEG3 expressing hLRH-1
Assay: APOC3 transcript change (ddCt vs TBP and DMSO), Z-score over library; higher = higher APOC3 expression
Conditions: 10 µM; time (hr): 24

| Structure (SMILES) | APOC3 transcript change (Z-score) |
| --- | --- |
| O=C(CCNNC(=O)c1ccncc1)NCc1ccccc1 [Nialamide] | -0.457 |
| CN(C)CCOC(c1ccccc1)c1ccccc1 [Diphenhydramine hydrochloride] | -0.326 |
| O=C1C(=O)C([C@H]2CC[C@H](c3ccc(Cl)cc3)CC2)=C(O)c2ccccc21 [atovaquone] | -1.4 |
| C[C@H](N[C@@H](CCc1ccccc1)C(=O)O)C(=O)N1Cc2ccccc2C[C@H]1C(=O)O [quinaprilat] | -0.568 |
| Cn1c(=O)c2c(ncn2CC(O)CO)n(C)c1=O (configuration not stated) [dyphylline] | -0.857 |
| C[C@]12C=CC(=O)C=C1CC[C@H]1[C@@H]3C[C@@H](O)[C@](O)(C(=O)CO)[C@@]3(C)C[C@H](O)[C@@]12F [triamcinolone] | 1.09 |
| Oc1ccnc(S)n1 [2-thiouracil] | -0.388 |
| CN1C(=O)OC(C)(C)C1=O [trimethadione] | -0.434 |
| CC(C)NC[C@H](O)COc1cccc2ccccc12 [dexpropranolol hydrochloride] | 0.292 |
| COc1cc2ncnc(Nc3ccc(F)c(Cl)c3)c2cc1OCCCN1CCOCC1 [gefitinib] | -0.804 |
| C[N+](C)(CCOc1ccccc1)Cc1ccccc1 [bephenium hydroxynapthoate] | -0.614 |
| Cc1c(OCC(F)(F)F)ccnc1CS(=O)c1nc2ccccc2[nH]1 (configuration not stated) [lansoprazole] | -0.0619 |
| CCO/C(O)=C1\C(COCCN)=NC(C)=C(C(=O)OC)C1c1ccccc1Cl (configuration not stated) [amlodipine besylate] | 0.449 |
| CCC(=O)O[C@H]1[C@H](O[C@@H]2[C@@H](C)[C@H](O[C@H]3C[C@@](C)(OC)[C@@H](O)[C@H](C)O3)[C@@H](C)C(=O)O[C@H](CC)[C@@](C)(O)[C@H](O)[C@@H](C)C(=O)[C@H](C)C[C@@]2(C)O)O[C@H](C)C[C@@H]1N(C)C [erythromycin estolate] | 0.215 |
| NCCNCCNCCN [trientine hydrochloride] | 0.375 |
| Cc1ccnc(NS(=O)(=O)c2ccc(N)cc2)n1 [sulfamerazine] | 1.29 |
| Cc1cc(-n2c(=O)[nH]c(=O)n(C)c2=O)ccc1Oc1ccc(SC(F)(F)F)cc1 [toltrazuril] | 1.57 |
| O=C(CCCCCCC(=O)Nc1ccccc1)NO [vorinostat] | -0.957 |
| CNCCC(Oc1ccc(C(F)(F)F)cc1)c1ccccc1 (configuration not stated) [Fluoxetine hydrochloride] | -0.218 |
| NCCCC(O)(P(=O)(O)O)P(=O)(O)O [alendronate sodium] | -0.247 |
| CNC[C@H](O)[C@@H](O)[C@H](O)[C@H](O)CO [meglumine] | 0.28 |
| Cc1ccc(C(=O)C(C)CN2CCCCC2)cc1 (configuration not stated) [tolperisone hydrochloride] | -1.06 |
| CCN(CC)CCOC(=O)C1(C2CCCCC2)CCCCC1 [dicyclomine hydrochloride] | -0.0926 |
| NC(=O)c1ncn([C@@H]2O[C@H](CO)[C@@H](O)[C@H]2O)n1 [ribavirin] | 0.943 |

Among those listed so far, these contain an NH in an aromatic ring.

| Structure (SMILES) | APOC3 transcript change (Z-score) |
| --- | --- |
| Cc1c(OCC(F)(F)F)ccnc1CS(=O)c1nc2ccccc2[nH]1 (configuration not stated) [lansoprazole] | -0.0619 |
| Cc1cc(-n2c(=O)[nH]c(=O)n(C)c2=O)ccc1Oc1ccc(SC(F)(F)F)cc1 [toltrazuril] | 1.57 |

(more compounds)

| Structure (SMILES) | APOC3 transcript change (Z-score) |
| --- | --- |
| O=c1c(Cc2c(O)oc3ccccc3c2=O)c(O)oc2ccccc12 [dicumarol] | -0.686 |
| CCN(CC)CCOC(=O)c1ccc(N)cc1 [procaine hydrochloride] | -0.108 |
| CC(C)CCCC(C)N (configuration not stated) [octodrine] | 1.25 |
| CC(C)(C)CC(C)(C)c1cc(Cc2cc(C(C)(C)CC(C)(C)C)cc(-n3nc4ccccc4n3)c2O)c(O)c(-n2nc3ccccc3n2)c1 [bisoctrizole] | -0.0962 |
| CN1CCN(CCCN2c3ccccc3Sc3ccc(Cl)cc32)CC1 [Prochlorperazine dimaleate] | 0.867 |
| CC(=O)O[C@H]1C[C@@]2(C)[C@@H](C[C@@H](O)[C@H]3[C@@]4(C)CC[C@@H](O)[C@@H](C)[C@@H]4CC[C@@]32C)/C1=C(\CCC=C(C)C)C(=O)O [fusidic acid] | -0.63 |
| CC(C)N1CCN(c2ccc(OC[C@H]3CO[C@](Cn4cncn4)(c4ccc(Cl)cc4Cl)O3)cc2)CC1 [terconazole] | -0.401 |
| CC(=O)N[C@@H](CS)C(=O)O [acetylcysteine] | 0.409 |
| Cc1cccc(Nc2ccncc2S(=O)(=O)NC(=O)NC(C)C)c1 [torsemide] | 0.158 |
| Cc1cc(O)cc(C)c1Cl [chloroxylenol] | 0.435 |
| Oc1cccc(O)c1 [resorcinol] | 1.02 |
| CC[C@H]1OC(=O)[C@H](C)[C@@H](O[C@H]2C[C@@](C)(OC)[C@@H](O)[C@H](C)O2)[C@H](C)[C@@H](O[C@@H]2O[C@H](C)C[C@H](N(C)C)[C@H]2O)[C@](C)(O)C[C@@H](C)CN(C)[C@H](C)[C@@H](O)[C@]1(C)O [azithromycin] | 0.423 |
| CC(N)CCCC(C)(C)O (configuration not stated) [heptaminol hydrochloride] | -0.957 |
| O=C(NC(Cc1cc(O)nc2ccccc12)C(=O)O)c1ccc(Cl)cc1 (configuration not stated) [rebamipide] | -1.07 |
| CCOC(=O)CC(=O)N1CCSC1COc1ccccc1OC (configuration not stated) [moguisteine] | -1.17 |
| C1N2CN3CN1CN(C2)C3 [methenamine] | 0.569 |
| CN(C)CCCN1c2ccccc2Sc2ccccc21 [promazine hydrochloride] | 0.84 |
| CCOC(=S)SSC(=S)OCC [dixanthogen] | -0.107 |
| CC1(C)O[C@@H]2CC3C4C[C@H](F)C5=CC(=O)C=CC5(C)C4C(O)CC3(C)[C@]2(C(=O)CO)O1 (some centres not stated) [flunisolide] | 0.583 |
| CC(=O)Oc1c(C)c(C)c2c(c1C)CCC(C)(CCCC(C)CCCC(C)CCCC(C)C)O2 (stereo not drawn) [alpha-tochopheryl acetate] | -0.403 |
| N[C@@H]1[C@@H](O)[C@H](O)[C@@H](CO)O[C@H]1O [glucosamine hydrochloride] | -0.281 |
| CCC(C)CCCCC(=O)NC(CCN)C(=O)NC(C(=O)NC(CCN)C(=O)NC1CCNC(=O)C(C(C)O)NC(=O)C(CCN)NC(=O)C(CCN)NC(=O)C(CC(C)C)NC(=O)C(Cc2ccccc2)NC(=O)C(CCN)NC1=O)C(C)O (configuration not stated) [polymyxin b sulfate] | 0.0514 |
| C/C=C(/C)C(=O)O[C@@H]1[C@H](OC(C)=O)[C@@]2(CO)C(CC1(C)C)C1=CCC3[C@@]4(C)CC[C@H](O[C@@H]5O[C@H](C(=O)O)[C@@H](O[C@@H]6O[C@H](CO)[C@@H](O)[C@H](O)[C@H]6O)[C@H](O)[C@H]5O[C@@H]5O[C@H](CO)[C@@H](O)[C@H](O)[C@H]5O)[C@](C)(CO)C4CC[C@@]3(C)[C@]1(C)C[C@H]2O (stereo partly drawn) [beta-escin] | -1.13 |
| C[C@@H]1C[C@H]2[C@@H]3CCC4=CC(=O)C=C[C@]4(C)[C@@]3(Cl)[C@@H](O)C[C@]2(C)[C@@]1(OC(=O)c1ccco1)C(=O)CCl [mometasone furoate] | 0.663 |

| Structure (SMILES) | APOC3 transcript change (Z-score) |
| --- | --- |
| CN1CCN(CCCN2c3ccccc3Sc3ccc(C(F)(F)F)cc32)CC1 [Trifluoperazine dihydrochloride] | 0.98 |
| CN(C)CCOc1ccc(/C(=C(/CCCl)c2ccccc2)c2ccccc2)cc1 [toremiphene citrate] | 0.913 |
| C[C@]12CCC(=O)C=C1[C@@H]1C[C@@H]1[C@H]1[C@@H]3[C@@H]4C[C@@H]4[C@@]4(CCC(=O)O4)[C@@]3(C)CC[C@@H]12 [drospirenone] | 0.0446 |
| C[N+](C)(C)CC(O)CC(=O)O (configuration not stated) [carnitine hydrochloride] | -0.141 |
| CCCOc1ccc(C(=O)OCCN(CC)CC)cc1N [proparacaine hydrochloride] | -0.489 |
| Clc1ccc(CSC(Cn2ccnc2)c2ccc(Cl)cc2Cl)cc1 (configuration not stated) [sulconazole nitrate] | 0.0586 |
| O=C(CCCN1CC=C(n2c(O)nc3ccccc32)CC1)c1ccc(F)cc1 [droperidol] | -0.911 |
| Cc1ccc(S(=O)(=O)NCl)cc1 [chloramine-t] | -2.3 |
| CC(Oc1ccccc1)C(=O)N[C@@H]1C(=O)N2[C@@H]1SC(C)(C)[C@@H]2C(=O)O (some centres not stated) [phenethicillin potassium] | 1.42 |
| COc1cc([C@@H]2c3cc4c(cc3C(O[C@@H]3O[C@@H]5CO[C@@H](c6cccs6)OC5[C@H](O)[C@H]3O)C3COC(=O)[C@@H]32)OCO4)cc(OC)c1O (some centres not stated) [teniposide] | 4.6 |
| O=C(O)c1cccnc1Nc1cccc(C(F)(F)F)c1 [niflumic acid] | 0.0816 |
| CC(=O)NCCCCCC(=O)O [acexamic acid] | -0.273 |
| c1ccc(CC2=NCCN2)cc1 [tolazoline hydrochloride] | -1.15 |
| Nc1ccc(S(=O)(=O)Nc2nccs2)cc1 [sulfathiazole] | 0.0209 |
| CC(C)(Oc1ccc(C2CC2(Cl)Cl)cc1)C(=O)O (configuration not stated) [ciprofibrate] | -0.214 |
| Clc1ccc(C(Cn2ccnc2)OCc2ccsc2Cl)c(Cl)c1 (configuration not stated) [tioconazole] | 0.761 |
| CC[C@]1(O)C[C@H]2CN(CCc3c([nH]c4ccccc34)[C@@](C(=O)OC)(c3cc4c(cc3OC)N(C)[C@H]3[C@@](O)(C(=O)OC)[C@H](OC(C)=O)[C@]5(CC)C=CCN6CC[C@]43[C@@H]65)C2)C1 [vinblastine sulfate] | -2.09 |
| Cc1ccccc1C(OCCN(C)C)c1ccccc1 (configuration not stated) [orphenadrine citrate] | 0.924 |
| NC(=O)c1cnccn1 [pyrazinamide] | 0.101 |
| Cc1cc(C2CCCCC2)n(O)c(=O)c1 [ciclopirox olamine] | 3.56 |
| O=C1OC(c2ccc(O)cc2)(c2ccc(O)cc2)c2ccccc21 [phenolphthalein] | 0.502 |
| NS(=O)(=O)c1cc2c(cc1Cl)NCNS2(=O)=O [Hydrochlorothiazide] | 0.422 |
| O=C1c2cccc(O)c2C(=O)c2c(O)cccc21 [dantron] | 2.17 |
| OCCOCCN1CCN(C(c2ccccc2)c2ccc(Cl)cc2)CC1 (configuration not stated) [hydroxyzine pamoate] | -1.75 |
